Experimental findings from patent WO2011158973A1 (dated 2011) are described below.

These are yes or no findings as the source states them, for the method shown. Some binding calls cover weakened binding; strength is not graded here.

Experiment [1] has as its target T1, mouse fibrin (mouse) (UniProt E9PV24+Q8K0E8+Q8VCM7).
T1 sequence (looked up) 1: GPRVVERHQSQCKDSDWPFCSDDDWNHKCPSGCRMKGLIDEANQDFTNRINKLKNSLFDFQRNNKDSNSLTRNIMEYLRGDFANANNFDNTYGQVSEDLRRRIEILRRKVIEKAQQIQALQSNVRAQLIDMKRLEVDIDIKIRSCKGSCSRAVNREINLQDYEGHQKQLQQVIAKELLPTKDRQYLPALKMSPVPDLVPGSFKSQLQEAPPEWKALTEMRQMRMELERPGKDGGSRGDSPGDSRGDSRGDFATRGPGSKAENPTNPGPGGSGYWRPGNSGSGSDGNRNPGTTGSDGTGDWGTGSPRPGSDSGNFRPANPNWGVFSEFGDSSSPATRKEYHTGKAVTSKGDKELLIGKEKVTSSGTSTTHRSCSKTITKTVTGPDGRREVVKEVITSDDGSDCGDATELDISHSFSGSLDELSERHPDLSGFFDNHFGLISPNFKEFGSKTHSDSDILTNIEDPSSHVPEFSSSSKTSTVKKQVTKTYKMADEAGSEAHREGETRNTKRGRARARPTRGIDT
T1 sequence (looked up) 2: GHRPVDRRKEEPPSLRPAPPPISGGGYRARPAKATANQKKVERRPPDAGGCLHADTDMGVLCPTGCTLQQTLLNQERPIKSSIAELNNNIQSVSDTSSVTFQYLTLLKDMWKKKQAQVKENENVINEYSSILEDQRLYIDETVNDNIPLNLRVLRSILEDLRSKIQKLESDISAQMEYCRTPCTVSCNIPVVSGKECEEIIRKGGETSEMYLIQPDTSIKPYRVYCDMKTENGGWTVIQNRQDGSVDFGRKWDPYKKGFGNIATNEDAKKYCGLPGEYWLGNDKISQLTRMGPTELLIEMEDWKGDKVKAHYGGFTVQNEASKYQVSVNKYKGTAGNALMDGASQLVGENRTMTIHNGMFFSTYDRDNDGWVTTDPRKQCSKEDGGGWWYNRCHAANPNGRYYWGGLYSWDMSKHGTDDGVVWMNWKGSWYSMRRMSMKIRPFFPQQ
T1 sequence (looked up) 3: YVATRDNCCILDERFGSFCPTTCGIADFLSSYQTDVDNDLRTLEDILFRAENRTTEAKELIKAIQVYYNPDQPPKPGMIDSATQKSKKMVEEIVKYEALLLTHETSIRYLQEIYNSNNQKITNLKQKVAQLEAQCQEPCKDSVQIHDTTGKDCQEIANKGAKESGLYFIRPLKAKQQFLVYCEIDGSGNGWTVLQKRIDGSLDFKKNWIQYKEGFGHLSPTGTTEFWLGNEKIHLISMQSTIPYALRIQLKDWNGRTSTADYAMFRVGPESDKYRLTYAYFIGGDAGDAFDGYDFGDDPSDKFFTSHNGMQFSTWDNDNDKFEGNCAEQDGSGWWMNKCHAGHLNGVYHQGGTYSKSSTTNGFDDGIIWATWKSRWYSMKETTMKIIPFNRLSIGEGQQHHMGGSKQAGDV
Kind of experiment: ELISA, hybridoma 102-10 culture supernatant on fibrin plate (Fig. 1C).

In experiment [2] the target is T1, mouse fibrin (mouse). Kind of experiment: immunostaining of sections of mouse chemically induced invasive squamous cell carcinoma (Fig. 6B).
The target in experiment [3] is T1, mouse fibrin (mouse). The experiment in a line: ELISA, purified chimeric antibody on fibrin plate (Fig. 3).

B1: mouse anti-fibrin IgM antibody produced by hybridoma cell line 102-10 (accession number NITE BP-923) (antibody, V domains shown)
VH: QIQLVQSGPELKKPGETVKISCKASGYTFTNYGMNWVKQAPGKGLKWMGWINTYTGEATYADDFKGRFAFSLETSANTAYVQINNLKNEDTATYFCARLMDYWGQGTSVTVSS
VL: DIQMTQSPSSLSASLGGKVTITCKASQDINKYIAWFQHKPGKGPRLLIHYTSTLQPGIPSRFSGSGSGRDYSFSISNLEPEDLATYYCLQYDNLTWTFGGGTKLEIK
notes: Mouse IgM; Tested as hybridoma culture supernatant in ELISA; also called clone 102-10; mouse IgM antibody
In the case of B1, the binding entry in experiment [1] and in experiment [2] was “binds” in each case.

B2: human type anti-fibrin chimeric antibody (human type IgG clone 102-10Hu) (antibody, V domains shown)
VH: B1 VH
VL: B1 VL
notes: made in CHO cells, purified on Protein G and hydroxyapatite; They may include a leader peptide; no cleavage site is stated; also called human chimeric antibody; human chimeric anti-fibrin IgG
Consider B2, for which, in experiment [3], the binding result is listed as “binds”.
